Values quoted from earlier work in patent US7297489B2, “Mutations in and genomic structure of HERG—a long QT syndrome gene” (University of Utah Research Foundation, priority 1998, dated 2007).

System: IKr of cardiac myocytes
Details: nM concentrations; cited from earlier work

## Cc1cccc(CCN2CCC(C(=O)c3ccc(NS(C)(=O)=O)cc3)CC2)n1 [E-4031]
  block of IKr: blocked
